Laboratory results published in PubChem BioAssay AID504467 (National Center for Advancing Translational Sciences (NCATS), 2011).
About 7,700 (2.3%) of roughly 330,000 compounds were called active. The inconclusive results got no clear call from the source; some entries with a clear call stand among them for comparison. The call rests on the fitted dose curve; in most records, active means well fitted inhibition curve with a large enough effect; inconclusive means small, poorly fitted or top-dose-only effect, or effect the other way; inactive means flat fitted curve, though single readings scatter. A potency beside an inconclusive call is a rough fit, not a confirmed value.

Experiment: qHTS screen for small molecules that inhibit ELG1-dependent DNA repair in human embryonic kidney (HEK293T) cells expressing luciferase-tagged ELG1; further: nearly all actives have a fitted effect of over 55% in size
Details: HEK293T ELG1-luciferase reporter, luminescence, 16 h, DNA damage induced by 5-fluorouridine; series mostly up to 46.1 µM
Procedure, shortened: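 Step one: seed 2,000 cells per well. Step two: pin-transfer compound or DMSO alongside 5-fluorouridine. Step three: incubate 16 hr, 37 °C, 5% CO2. Step four: add ONE-Glo, wait 30 min, read luminescence.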
Potency means the concentration at half of the fitted maximal effect.

| Structure (SMILES) | Potency |
| --- | --- |
| COCCN1CCN(Cc2nc(C3(c4ccc(C)cc4)CCCC3)no2)CC1 | inactive |
| COc1cc(Cl)c(C)cc1NC(=O)Cc1cccs1 | inactive |
| Cc1ccc(-n2nc3c(c2NC(=O)c2ccccc2Br)CS(=O)C3)cc1 (centres undefined) | inconclusive: 23.1 µM [activator, partial curve, poor fit] |
| Cn1c(CCc2ccc(N)cc2)nc2ccccc21 | inconclusive: 10.3 µM [activator, partial curve] |
| COc1cccc(-c2csc(N3CCN(C(=O)Nc4ccc(Cl)cc4)CC3)n2)c1 | inconclusive: 23.1 µM [inhibitor, single point] |
| COc1ccc(N2C(=O)/C(=C\c3ccco3)N=C2SCC(=O)NC(C)(C)C)cc1Cl | inconclusive: 20.6 µM [inhibitor, single point] |
| C=CCNC(=O)c1ccc2c3n(nc2c1)-c1ccccc1CO3 | inconclusive: 0.82 µM [activator, partial curve] |
| Cc1ccc(-c2nc3n(n2)Cc2ccccc2-3)cc1 | inconclusive: 0.326 µM [activator, full curve] |
| CC(Sc1nnc(-c2ccccc2)c(-c2ccccc2)n1)C(=O)Nc1ncc(Cl)cc1Cl (centres undefined) | inconclusive: 20.6 µM [inhibitor, single point] |
| CCc1nnc(NC(=O)c2ccc(Cl)c(S(=O)(=O)N3CCc4ccccc43)c2)s1 | active: 23.1 µM |
| CCc1cccc(CC)c1NC(=O)COC(=O)C1(c2ccc(Cl)cc2)CCCC1 | inactive |
| Cc1ccc(CSCC(=O)N(C)CC(=O)Nc2ccc(C)cc2)cc1 | inactive |
| O=C(OCC(=O)c1cccs1)c1ccccc1 | inconclusive: 23.1 µM [activator, single point] |
| Cc1ccc(C)c(-c2cc(C(=O)NC3CC3)c3ccccc3n2)c1 | inactive |
| COc1ccc(C(=O)NC(=S)N2CCN(c3ccccc3OC)CC2)cc1OC | inactive |
| Cc1ccc(C)c(S(=O)(=O)Nc2ccccc2C(=O)Nc2cc(C)on2)c1 | active: 25.9 µM |
| O=S(=O)(NC1C2CC3CC(C2)CC1C3)c1ccccc1 (centres undefined) | inactive |
| CCOc1ccc(S(=O)(=O)n2nnc3ccccc32)cc1C(C)C | inconclusive: 25.9 µM [activator, single point] |
| Cc1cc(-c2csc(N)n2)c(C)n1-c1ccc(Cl)c(Cl)c1 | inconclusive: 23.1 µM [activator, partial curve, poor fit] |
| CC(c1ccco1)N(C(=O)c1ccccc1NS(=O)(=O)c1ccc(Cl)cc1)c1ccccn1 (centres undefined) | inactive |
| C/C(=N\NC(=O)c1ccco1)c1cc(Cl)sc1Cl | inconclusive: 18.3 µM [activator, partial curve] |
| CCS(=O)(=O)Nc1ccc(Cc2ccc(NS(=O)(=O)CC)cc2)cc1 | inconclusive: 29.1 µM [inhibitor, single point] |
| COc1cccc2c1OC1(C)CC2NC(=O)N1c1cccc(C(=O)N2CCN(c3ccccc3)CC2)c1 (centres undefined) | inactive |
| Cc1ccc(C(=O)OCC(=O)Nc2ccccc2N2CCOCC2)cc1 | inconclusive: 20.6 µM [inhibitor, partial curve] |
| CCOc1ccc(-n2c(SCc3ccc(C(=O)OC)o3)nc3c(c2=O)SCC3)cc1 | inactive |

Quoted from the entries so far, 3 compounds:

| Structure (SMILES) | Potency |
| --- | --- |
| COc1cccc2c1OC1(C)CC2NC(=O)N1c1cccc(C(=O)N2CCN(c3ccccc3)CC2)c1 (centres undefined) | inactive |
| Cc1ccc(C(=O)OCC(=O)Nc2ccccc2N2CCOCC2)cc1 | inconclusive: 20.6 µM [inhibitor, partial curve] |
| CCOc1ccc(-n2c(SCc3ccc(C(=O)OC)o3)nc3c(c2=O)SCC3)cc1 | inactive |

Remaining list, next part

| Structure (SMILES) | Potency |
| --- | --- |
| COc1ccc(NC(=O)CCC(=O)c2ccc(Cl)cc2)cn1 | inconclusive: 23.1 µM [activator, partial curve, poor fit] |
| O=[N+]([O-])c1ccc(Oc2cccc(Br)c2)c2ccncc12 | inconclusive: 20.6 µM [inhibitor, partial curve, poor fit] |
| c1nc2sc3c(c2c2nnnn12)CCC3 | inconclusive: 5.17 µM [inhibitor, partial curve, poor fit] |
| CCOC(=O)c1ccc(NC(=O)COc2ccc(S(=O)(=O)NC(C)CC)cc2)cc1 (centres undefined) | inconclusive: 2.06 µM [inhibitor, single point] |
| COC1=C/C(=C/c2c(N)n3nc(-c4ccc(C)cc4)sc3nc2=O)C=CC1=O | inconclusive: 29.1 µM [activator, single point] |
| Cc1ccc2oc(C(=O)N3CCC(O)(c4cccc(C(F)(F)F)c4)CC3)c(C)c2c1 | inactive |
| O=C(O)c1c(NC(=O)c2cccc3ccccc23)sc2c1CCC2 | inconclusive: 25.9 µM [inhibitor, single point] |
| COc1ccc(-n2nc(C(=O)NCC(=O)N3CCN(c4ccccc4F)CC3)c3ccccc3c2=O)cc1OC | inconclusive: 29.1 µM [inhibitor, single point] |
| CCC(=O)OCCn1c(=O)c2ccccc2c2ccccc2c1=O | inactive |
| Cn1nc(C(=O)NCc2ccccc2CN2CCCC2)c2ccccc2c1=O | inactive |
| S=C(Nc1ccc2nsnc2c1)N1CCCCC1 | inactive |
| Oc1ccc(C(=S)N2CCCCCC2)cc1 | inactive |
| O=C(COC(=O)c1c2c(nc3ccccc13)/C(=C/c1ccco1)CC2)NC1CCCC1 | inconclusive: 18.4 µM [inhibitor, single point] |
| C=C1CCC[C@]2(C)C[C@H]3OC(=O)C(CNC(C)(CO)CO)[C@H]3CC12 (some centres undefined) | inconclusive: 29.1 µM [activator, partial curve, poor fit] |
| COc1ccccc1N(C1=NCCCS1)S(=O)(=O)c1ccc(C(C)(C)C)cc1 | inactive |
| O=C(Nc1ccc(Cl)cc1)Nn1cnc2ccccc2c1=O | inconclusive: 29.1 µM [activator, partial curve, poor fit] |
| COC(=O)CCNC(=O)Cc1ccc(S(=O)(=O)N2CCCCC2)s1 | inactive |
| CC(Nc1nc(-c2ccccc2F)nc2ccccc12)c1ccccc1 (centres undefined) | inactive |
| CN(Cc1c(C(=O)N/N=C/c2ccc(O)cc2)nnn1-c1nonc1N)c1ccccc1 | inactive |
| COC(=O)CC1=NN(c2ccccc2)C(=O)/C1=C\c1ccc(OC)cc1 | inconclusive: 20.6 µM [activator, single point] |
| Cc1ccc2c(=O)c(C(=O)NCc3cccs3)c[nH]c2c1 | inconclusive: 18.4 µM [activator, single point] |
| Cc1nn(-c2ccccc2Cl)c(Cl)c1/C=N/Nc1nc2ccccc2s1 | inconclusive: 0.103 µM [activator, full curve, poor fit] |
| COCCNc1cc(C)nc2cc(-c3ccc(C)cc3)nn12 | inactive |
| Cc1ccc2nc(-c3ccccn3)cc(C(=O)N3CCN(c4ncccn4)CC3)c2c1 | inconclusive: 18.4 µM [inhibitor, partial curve] |
| CCOc1cccc(-c2nnc3sc(COc4ccc(OC)cc4)nn23)c1 | inconclusive: 16.4 µM [inhibitor, single point] |

| Structure (SMILES) | Potency |
| --- | --- |
| Cc1cccc(NC(=O)c2cc(S(=O)(=O)N3CCOCC3)cn2C)c1C | inactive |
| CC(C)(C)c1ccc(C(=O)N2CCCCCC2=O)cc1 | inconclusive: 0.411 µM [inhibitor, full curve] |
| CCOc1ccccc1N1Cc2cc(C)c(C)cc2C1 | inactive |
| CCOCCN(C(=O)c1ccccc1Cl)c1cccc(C)c1C | inactive |
| COc1ccc(OC)c(NC(=O)Nc2cccc(Cn3cccn3)c2)c1 | inconclusive: 29.1 µM [inhibitor, single point] |
| C/C(=N\N1CCN(c2ccc(Cl)cc2)CC1)c1cccc([N+](=O)[O-])c1 | inconclusive: 25.9 µM [inhibitor, single point] |
| CCOc1ccc2nc(N3CCCC(C(=O)NCCCN4CCCCC4)C3)sc2c1 (centres undefined) | inconclusive: 20.6 µM [activator, partial curve] |
| O=C(COc1ccc(-c2ccccc2)cc1)N1CCN(C(=O)c2cccs2)CC1 | inconclusive: 20.6 µM [activator, single point] |
| COC(=O)c1ccc2c(c1)C(C)(C)C(/C=C/c1ccc(O)cc1)=[N+]2C | inconclusive: 4.61 µM [inhibitor, full curve] |
| CCCN(CC(=O)Nc1ccccc1C)C(=O)c1ccc(-c2ccc(C(C)=O)cc2)o1 | inconclusive: 18.3 µM [inhibitor, single point] |
| Cc1[nH]n(-c2ccc([N+](=O)[O-])cc2)c(=O)c1/C=N/N1CCOCC1 | inconclusive: 16.4 µM [activator, single point] |
| COc1ccc(C(c2nnnn2C2CCCC2)N2CCC(C)CC2)cc1 (centres undefined) | inconclusive: 20.6 µM [activator, partial curve, poor fit] |
| COc1ccc(NC(=O)/C(C#N)=C\c2cc(C)n(-c3ccc4c(c3)OCO4)c2C)cc1 | inactive |
| CCc1ccccc1NC(=O)c1cc2sccc2n1C | inactive |
| CCOC(=O)C1=C(C)C(c2ccccc2O)NC(=O)N1 (centres undefined) | inactive |
| CN(C)c1ccc(C=Nc2ccccc2)cc1 | inconclusive: 25.9 µM [activator, single point] |
| COc1ccc(CC(=O)Nc2ccccc2N2CCCCC2)cc1OC | inconclusive: 32.6 µM [inhibitor, partial curve, poor fit] |
| Cc1noc(C)c1C(=O)N(C)CC(=O)Nc1ccc(F)c(F)c1F | inactive |
| COc1ccc(NC(=O)c2oc3ccccc3c2NC(=O)C2CC2)cc1OC | active: 16.4 µM |
| Cn1nccc1C(=O)NC1CC(C)(C)Cc2c1cnn2-c1ccc(F)cc1 (centres undefined) | inactive |
| O=C(Nc1ccc(F)cc1F)c1cc2ncc(Br)cn2n1 | inconclusive: 29.1 µM [activator, single point] |
| CCn1cc(C(=O)Nc2ccc(OC)c(OC)c2)c2cc(OC)c(OC)cc2c1=O | inconclusive: 11.6 µM [inhibitor, partial curve] |
| CC(=O)Nc1nc(=S)ss1 | inactive |
| CC1(C)Cc2c(sc(NC(=O)c3ccco3)c2C#N)C(C)(C)N1 | inactive |

Pulled by compound from the list above (2):

| Structure (SMILES) | Potency |
| --- | --- |
| COc1ccc(C(c2nnnn2C2CCCC2)N2CCC(C)CC2)cc1 (centres undefined) | inconclusive: 20.6 µM [activator, partial curve, poor fit] |
| Cn1nc(C(=O)NCc2ccccc2CN2CCCC2)c2ccccc2c1=O | inactive |
